This is one part of the list.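 The calls were made as follows: active = dose-dependent thermal stabilisation significant by F-test of dose-response against flat model at 10% FDR; inactive = not significant.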
Compound: Nc1nc2c(ncn2[C@@H]2O[C@H](COP(=O)(O)OP(=O)(O)OP(=O)(O)O)[C@@H](O)[C@H]2O)c(=O)[nH]1
Experiment: dose-dependent thermal stabilisation call (2D-TPP, DLPTP, 10% FDR) (binary (1 = stabilised)); higher = stabilised by the compound
Settings: system: Jurkat gel-filtered lysate; concentration range 1-500 µM

By UniProt entry, the sequences of proteins in these tests, tags left out. Where a name states a change or a piece, a line headed by the entry shows the natural chain unless it says otherwise.
UniProt P47756, whole entry: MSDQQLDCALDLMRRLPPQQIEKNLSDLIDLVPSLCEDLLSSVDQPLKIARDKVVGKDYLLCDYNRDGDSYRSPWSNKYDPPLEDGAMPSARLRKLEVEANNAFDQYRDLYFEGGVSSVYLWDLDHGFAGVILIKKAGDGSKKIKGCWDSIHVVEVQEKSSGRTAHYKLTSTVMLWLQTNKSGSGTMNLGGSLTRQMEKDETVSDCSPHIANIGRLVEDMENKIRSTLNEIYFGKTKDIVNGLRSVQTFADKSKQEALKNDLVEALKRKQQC
UniProt Q99700, whole entry: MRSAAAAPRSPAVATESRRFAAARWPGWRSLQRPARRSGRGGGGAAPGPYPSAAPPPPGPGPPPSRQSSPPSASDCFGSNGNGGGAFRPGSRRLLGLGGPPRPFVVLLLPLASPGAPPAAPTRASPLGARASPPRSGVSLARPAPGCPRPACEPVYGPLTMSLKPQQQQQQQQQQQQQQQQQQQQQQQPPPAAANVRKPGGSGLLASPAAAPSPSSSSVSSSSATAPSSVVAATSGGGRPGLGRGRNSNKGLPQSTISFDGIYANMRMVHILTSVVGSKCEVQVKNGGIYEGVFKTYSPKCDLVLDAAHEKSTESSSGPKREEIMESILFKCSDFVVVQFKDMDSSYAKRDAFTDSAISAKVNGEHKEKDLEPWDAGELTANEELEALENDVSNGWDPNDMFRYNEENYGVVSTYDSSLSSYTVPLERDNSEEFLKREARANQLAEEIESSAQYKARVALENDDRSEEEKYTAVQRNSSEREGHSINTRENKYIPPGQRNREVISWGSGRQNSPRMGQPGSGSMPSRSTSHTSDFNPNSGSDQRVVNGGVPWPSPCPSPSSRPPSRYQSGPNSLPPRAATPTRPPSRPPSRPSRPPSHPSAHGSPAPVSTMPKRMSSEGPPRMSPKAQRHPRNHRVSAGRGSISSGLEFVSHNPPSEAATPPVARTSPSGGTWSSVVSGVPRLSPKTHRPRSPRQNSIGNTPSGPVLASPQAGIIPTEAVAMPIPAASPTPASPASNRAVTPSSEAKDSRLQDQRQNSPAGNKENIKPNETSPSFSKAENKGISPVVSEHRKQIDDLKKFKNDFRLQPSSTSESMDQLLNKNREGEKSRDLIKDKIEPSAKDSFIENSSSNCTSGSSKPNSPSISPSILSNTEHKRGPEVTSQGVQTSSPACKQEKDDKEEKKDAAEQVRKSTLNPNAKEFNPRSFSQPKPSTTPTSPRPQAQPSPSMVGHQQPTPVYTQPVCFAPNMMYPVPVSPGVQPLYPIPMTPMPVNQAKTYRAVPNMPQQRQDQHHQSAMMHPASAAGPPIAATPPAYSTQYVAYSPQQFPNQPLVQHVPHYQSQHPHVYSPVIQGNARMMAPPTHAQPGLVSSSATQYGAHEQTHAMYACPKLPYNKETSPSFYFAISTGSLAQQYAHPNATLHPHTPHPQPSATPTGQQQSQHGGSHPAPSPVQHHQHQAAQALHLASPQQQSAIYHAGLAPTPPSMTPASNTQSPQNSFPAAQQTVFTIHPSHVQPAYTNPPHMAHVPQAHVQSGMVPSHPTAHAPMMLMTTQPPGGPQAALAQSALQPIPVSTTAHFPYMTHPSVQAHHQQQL
UniProt P12694: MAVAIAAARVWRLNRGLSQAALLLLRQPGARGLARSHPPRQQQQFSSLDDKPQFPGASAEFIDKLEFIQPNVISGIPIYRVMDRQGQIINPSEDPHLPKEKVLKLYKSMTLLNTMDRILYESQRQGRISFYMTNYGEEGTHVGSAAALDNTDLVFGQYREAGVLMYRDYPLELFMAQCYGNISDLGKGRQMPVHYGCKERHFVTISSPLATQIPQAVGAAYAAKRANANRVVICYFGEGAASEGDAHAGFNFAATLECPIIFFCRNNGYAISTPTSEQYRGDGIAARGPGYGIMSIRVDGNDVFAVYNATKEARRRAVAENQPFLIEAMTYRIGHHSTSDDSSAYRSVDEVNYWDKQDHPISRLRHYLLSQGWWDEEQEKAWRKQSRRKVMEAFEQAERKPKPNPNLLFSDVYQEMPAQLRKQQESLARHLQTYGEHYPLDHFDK
UniProt O43709: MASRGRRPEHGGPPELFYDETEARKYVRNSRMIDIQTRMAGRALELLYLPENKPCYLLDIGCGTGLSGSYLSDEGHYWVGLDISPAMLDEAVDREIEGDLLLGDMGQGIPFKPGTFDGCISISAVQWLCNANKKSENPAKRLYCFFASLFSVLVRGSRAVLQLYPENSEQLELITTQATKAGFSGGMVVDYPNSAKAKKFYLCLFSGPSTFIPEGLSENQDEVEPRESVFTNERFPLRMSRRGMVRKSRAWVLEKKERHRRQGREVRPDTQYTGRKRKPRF
UniProt Q9UII2: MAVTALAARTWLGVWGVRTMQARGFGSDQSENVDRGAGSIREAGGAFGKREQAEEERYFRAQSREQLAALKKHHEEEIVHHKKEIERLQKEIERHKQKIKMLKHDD
UniProt Q6Y288: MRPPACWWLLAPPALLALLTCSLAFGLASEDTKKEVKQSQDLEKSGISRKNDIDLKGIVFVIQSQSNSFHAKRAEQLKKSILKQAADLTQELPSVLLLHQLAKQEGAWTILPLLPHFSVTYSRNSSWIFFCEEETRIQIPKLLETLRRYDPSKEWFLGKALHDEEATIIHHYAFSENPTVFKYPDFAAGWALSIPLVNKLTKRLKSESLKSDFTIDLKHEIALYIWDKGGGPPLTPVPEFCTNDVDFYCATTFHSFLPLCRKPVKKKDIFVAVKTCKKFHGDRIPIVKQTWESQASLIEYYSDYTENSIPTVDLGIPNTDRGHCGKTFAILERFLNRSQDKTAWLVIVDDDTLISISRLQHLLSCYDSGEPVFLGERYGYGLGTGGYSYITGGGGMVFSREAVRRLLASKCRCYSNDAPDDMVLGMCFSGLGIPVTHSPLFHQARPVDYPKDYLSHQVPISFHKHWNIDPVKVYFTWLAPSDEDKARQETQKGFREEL
UniProt P0DPI2: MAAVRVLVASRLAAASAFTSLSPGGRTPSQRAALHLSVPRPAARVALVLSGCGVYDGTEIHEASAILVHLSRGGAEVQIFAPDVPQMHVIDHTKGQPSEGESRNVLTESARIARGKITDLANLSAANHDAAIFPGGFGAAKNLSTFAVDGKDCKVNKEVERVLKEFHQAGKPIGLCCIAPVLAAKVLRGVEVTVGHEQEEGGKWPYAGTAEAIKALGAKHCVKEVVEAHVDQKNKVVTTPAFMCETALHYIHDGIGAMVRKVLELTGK
UniProt Q66PJ3: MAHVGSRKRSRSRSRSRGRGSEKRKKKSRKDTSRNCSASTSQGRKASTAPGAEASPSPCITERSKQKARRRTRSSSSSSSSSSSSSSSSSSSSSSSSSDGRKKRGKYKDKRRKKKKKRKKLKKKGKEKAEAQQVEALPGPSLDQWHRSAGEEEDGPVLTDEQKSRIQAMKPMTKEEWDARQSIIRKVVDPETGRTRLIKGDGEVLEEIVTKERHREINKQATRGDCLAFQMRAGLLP
UniProt Q8N6N3: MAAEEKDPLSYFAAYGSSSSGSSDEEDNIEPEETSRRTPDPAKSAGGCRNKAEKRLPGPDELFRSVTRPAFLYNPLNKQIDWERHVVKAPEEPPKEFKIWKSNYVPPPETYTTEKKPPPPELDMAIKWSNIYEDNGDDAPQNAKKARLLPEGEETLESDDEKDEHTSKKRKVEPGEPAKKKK
UniProt Q9Y2V2: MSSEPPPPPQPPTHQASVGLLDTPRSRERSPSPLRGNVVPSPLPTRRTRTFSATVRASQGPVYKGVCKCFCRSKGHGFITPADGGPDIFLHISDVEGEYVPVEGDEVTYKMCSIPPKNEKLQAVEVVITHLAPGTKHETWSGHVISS
UniProt Q96GS4: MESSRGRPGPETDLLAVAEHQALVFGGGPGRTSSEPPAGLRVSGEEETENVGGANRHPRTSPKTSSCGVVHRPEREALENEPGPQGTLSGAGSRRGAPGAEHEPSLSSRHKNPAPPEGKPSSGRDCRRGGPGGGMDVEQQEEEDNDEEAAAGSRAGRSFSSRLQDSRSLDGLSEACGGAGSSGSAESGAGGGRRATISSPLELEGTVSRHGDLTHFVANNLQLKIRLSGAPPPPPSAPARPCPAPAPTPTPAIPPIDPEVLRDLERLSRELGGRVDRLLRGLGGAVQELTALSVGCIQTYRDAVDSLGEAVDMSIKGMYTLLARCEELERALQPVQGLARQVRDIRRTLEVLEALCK
UniProt Q9H0E9, whole entry: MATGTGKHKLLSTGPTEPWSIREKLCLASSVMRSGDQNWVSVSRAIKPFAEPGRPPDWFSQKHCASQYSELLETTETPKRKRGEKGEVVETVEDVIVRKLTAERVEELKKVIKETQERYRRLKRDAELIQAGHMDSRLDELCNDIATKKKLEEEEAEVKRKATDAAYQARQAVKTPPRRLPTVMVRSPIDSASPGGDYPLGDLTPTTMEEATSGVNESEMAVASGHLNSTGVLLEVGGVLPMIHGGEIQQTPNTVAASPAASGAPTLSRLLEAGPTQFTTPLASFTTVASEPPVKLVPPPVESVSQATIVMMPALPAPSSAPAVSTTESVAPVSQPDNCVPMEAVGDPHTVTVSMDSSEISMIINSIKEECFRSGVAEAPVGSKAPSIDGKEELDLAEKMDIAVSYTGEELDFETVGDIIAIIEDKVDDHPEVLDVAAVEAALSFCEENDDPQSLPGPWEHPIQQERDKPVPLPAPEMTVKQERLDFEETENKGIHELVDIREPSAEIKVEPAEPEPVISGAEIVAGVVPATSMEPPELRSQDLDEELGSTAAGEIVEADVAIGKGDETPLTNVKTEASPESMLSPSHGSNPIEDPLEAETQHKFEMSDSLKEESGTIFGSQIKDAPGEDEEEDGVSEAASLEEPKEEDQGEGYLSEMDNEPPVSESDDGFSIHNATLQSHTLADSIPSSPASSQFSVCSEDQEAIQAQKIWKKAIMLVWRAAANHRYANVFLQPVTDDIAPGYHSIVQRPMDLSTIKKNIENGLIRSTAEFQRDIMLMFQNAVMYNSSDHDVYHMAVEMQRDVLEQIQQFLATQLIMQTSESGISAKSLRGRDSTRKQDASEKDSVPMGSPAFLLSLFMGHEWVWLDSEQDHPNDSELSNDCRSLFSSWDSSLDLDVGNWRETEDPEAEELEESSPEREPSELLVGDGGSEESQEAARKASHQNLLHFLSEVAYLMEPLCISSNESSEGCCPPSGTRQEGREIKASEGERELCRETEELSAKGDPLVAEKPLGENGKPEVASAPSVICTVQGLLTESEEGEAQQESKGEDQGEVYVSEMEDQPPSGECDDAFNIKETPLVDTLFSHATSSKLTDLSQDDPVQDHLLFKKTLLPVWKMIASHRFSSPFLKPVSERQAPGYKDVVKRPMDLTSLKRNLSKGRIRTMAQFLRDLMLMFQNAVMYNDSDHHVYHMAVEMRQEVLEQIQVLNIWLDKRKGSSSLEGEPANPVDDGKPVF
UniProt P56211: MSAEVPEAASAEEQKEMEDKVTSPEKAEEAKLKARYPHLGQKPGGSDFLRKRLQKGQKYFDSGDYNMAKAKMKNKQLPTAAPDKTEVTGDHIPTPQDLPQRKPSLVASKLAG
UniProt B2RBV5: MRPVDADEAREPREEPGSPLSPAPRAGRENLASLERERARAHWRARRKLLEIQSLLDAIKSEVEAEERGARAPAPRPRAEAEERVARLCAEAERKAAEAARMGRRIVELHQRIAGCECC
UniProt Q9HB71, whole entry: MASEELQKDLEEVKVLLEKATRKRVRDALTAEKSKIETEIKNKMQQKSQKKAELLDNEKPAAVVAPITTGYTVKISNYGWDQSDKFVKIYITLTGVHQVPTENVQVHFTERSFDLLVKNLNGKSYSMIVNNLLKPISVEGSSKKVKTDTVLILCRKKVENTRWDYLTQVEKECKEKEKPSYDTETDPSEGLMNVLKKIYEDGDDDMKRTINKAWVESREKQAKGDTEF
UniProt Q13867: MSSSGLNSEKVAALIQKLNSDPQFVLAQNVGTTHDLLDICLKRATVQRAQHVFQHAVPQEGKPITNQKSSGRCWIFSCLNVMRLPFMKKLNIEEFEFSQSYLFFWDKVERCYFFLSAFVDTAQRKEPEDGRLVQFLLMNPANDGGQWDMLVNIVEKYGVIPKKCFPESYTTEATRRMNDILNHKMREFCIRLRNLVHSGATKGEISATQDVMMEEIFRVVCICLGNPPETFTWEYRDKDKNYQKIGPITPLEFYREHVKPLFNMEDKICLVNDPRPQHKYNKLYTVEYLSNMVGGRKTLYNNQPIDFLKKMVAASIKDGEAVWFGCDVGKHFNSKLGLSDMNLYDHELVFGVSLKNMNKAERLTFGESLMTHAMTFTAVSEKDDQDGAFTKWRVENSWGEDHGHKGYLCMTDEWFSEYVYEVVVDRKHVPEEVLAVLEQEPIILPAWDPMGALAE
UniProt P52565: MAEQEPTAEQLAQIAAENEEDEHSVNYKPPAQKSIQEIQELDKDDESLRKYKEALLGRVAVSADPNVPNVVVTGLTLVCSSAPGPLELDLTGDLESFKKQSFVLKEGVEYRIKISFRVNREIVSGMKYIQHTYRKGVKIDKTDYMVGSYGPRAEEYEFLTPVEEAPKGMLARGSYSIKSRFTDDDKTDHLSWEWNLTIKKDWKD
UniProt Q9Y3E2: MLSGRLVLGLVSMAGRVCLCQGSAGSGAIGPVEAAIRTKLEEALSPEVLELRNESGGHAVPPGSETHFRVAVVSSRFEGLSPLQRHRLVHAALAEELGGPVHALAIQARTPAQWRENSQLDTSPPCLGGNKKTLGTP

| Target | dose-dependent thermal stabilisation call |
| --- | --- |
| CAPZB (UniProt P47756) | inactive: 0 |
| ATXN2 (UniProt Q99700) | inactive: 0 |
| BCAT2 (UniProt O15382) | inactive: 0 |
| BPGM (UniProt P07738) | active: 1 |
| BCKDHA (UniProt P12694) | active: 1 |
| BUD23 (UniProt O43709) | inactive: 0 |
| BRCA1 (UniProt P38398) | inactive: 0 |
| ATPIF1 (UniProt Q9UII2) | inactive: 0 |
| ATG4C (UniProt Q96DT6) | inactive: 0 |
| B3GLCT (UniProt Q6Y288) | active: 1 |
| C21orf33 (UniProt P0DPI2) | inactive: 0 |
| ARL6IP4 (UniProt Q66PJ3) | inactive: 0 |
| C1orf52 (UniProt Q8N6N3) | inactive: 0 |
| CARHSP1 (UniProt Q9Y2V2) | inactive: 0 |
| BORCS6 (UniProt Q96GS4) | inactive: 0 |
| BRD8 (UniProt Q9H0E9) | inactive: 0 |
| ARL2BP (UniProt Q9Y2Y0) | inactive: 0 |
| ARPP19 (UniProt P56211) | inactive: 0 |
| NA (UniProt B2RBV5) | inactive: 0 |
| CACYBP (UniProt Q9HB71) | inactive: 0 |
| BLMH (UniProt Q13867) | inactive: 0 |
| ARHGDIA (UniProt P52565) | inactive: 0 |
| CALM1 (UniProt P0DP23) | inactive: 0 |
| BACH2 (UniProt Q9BYV9) | inactive: 0 |
| BOLA1 (UniProt Q9Y3E2) | inactive: 0 |
| ARID1B (UniProt Q8NFD5) | inactive: 0 |
| BRCC3 (UniProt P46736) | inactive: 0 |

An excerpt of these results, bar-delimited.
Target | dose-dependent thermal stabilisation call
BLMH (UniProt Q13867) | inactive: 0
ARHGDIA (UniProt P52565) | inactive: 0

— the supplement of paper PMC7666118
